Experimental data: US20230236206A1, “PREDICTING A SEPSIS CONDITION” (PHARM-ANALYT LABOR GMBH, priority 2020, published 2023)

Assay: BM1 level in human urine by HPLC-MS/MS

C[C@@H](O)[C@H](NC(=O)Nc1ncnc2c1ncn2[C@@H]1O[C@H](CO)C(O)C1O)C(=O)O (stereo partly drawn) [BM1, N6-Carbamoylthreonyl-D-adenosine]
Concentration in urine relative to plasma (healthy human subjects): 20-100 times | Reference level in urine (healthy or non-septic (heart failure) reference population): 2500-4500 ng BM1/mg Creatinine | Reference levels in urine of septic patients (septic patients): 5000-16000 ng/mg Creatinine
